# The whole screen tested about 300,000 compounds, of which about 3,700 (1.2%) were called active. Inconclusive means that the source gave no clear call. Such entries were picked first, then a sample of the others. Calls come from the whole dose curve; tested in HEK293 cells. A potency beside an inconclusive call is a rough fit, not a confirmed value.
# Test: qHTS for Inhibitors of binding or entry into cells for Lassa Virus; note: nearly all actives have a fitted effect of over 50% in size
# Conditions: Lassa virus pseudotype entry inhibition, cell reporter; series mostly up to 37.9 µM
# Potency is the fitted concentration of half-maximal effect.
row,SMILES,Potency
1,Cc1ccc(NC(=S)NCc2ccc(Cl)cc2)c(C)c1,"inconclusive: 12.6 µM [inhibitor, partial curve, poor fit]"
2,O=C(c1ccc(Cl)cc1)N1CCC(c2nc(-c3cccs3)no2)CC1,inactive
3,O=C(CCS(=O)(=O)c1ccccc1)N1CCN(c2ccccc2)CC1,inactive
4,N#C/C(=C\c1ccc(N2CCCCC2)o1)C(N)=O,inactive
5,COc1ccc(Cn2c(N)c(C(=O)NCc3ccco3)c3nc4ccccc4nc32)cc1OC,"inconclusive: 35.5 µM [inhibitor, single point]"
6,OCc1cn(-c2ccccc2)nc1-c1ccc2c(c1)OCCO2,"inconclusive: 18.3 µM [inhibitor, single point]"
7,CCOC(=O)C1CCN(S(=O)(=O)c2cc(-c3cc(C)no3)ccc2OC)CC1,inactive
8,COc1ccccc1C1=NOC(COC(=O)c2ccc(Br)cc2)C1 (stereo not given),"inconclusive: 18.4 µM [activator, single point]"
9,O=C(COC(=O)Cn1cnc2ccccc2c1=O)NCCC1=CCCCC1,"inconclusive: 35.5 µM [activator, partial curve, poor fit]"
10,CC(C)c1ccc(NC(=O)c2cnn(-c3ccccc3)c2NC(=O)c2ccco2)cc1,"inconclusive: 10 µM [inhibitor, partial curve]"
11,CC(=O)c1ccc(NC(=O)COc2ccccc2-c2nc(C(C)C)no2)cc1,inactive
12,O=C(/C=C/c1ccccc1)NCc1ccc2c(c1)OCO2,inactive
13,O=C(N/N=C\c1cccc(Cl)c1)c1n[nH]c2c1CCCC2,"inconclusive: 2.51 µM [inhibitor, full curve]"
14,Cc1ccc(CCNC(=O)C(C)n2nc(C)c3c(C)n(-c4ccc(C)cc4)nc3c2=O)cc1 (stereo not given),"inconclusive: 3.55 µM [inhibitor, full curve]"
15,Nc1ncc(-c2ccccc2)n1CC1CCCO1 (stereo not given),"inconclusive: 20.6 µM [activator, partial curve]"
16,CCOC(=O)N1CCC(N2CCN(Cc3ccccc3)C(CCO)C2)CC1 (stereo not given),inactive
17,Cc1c(C)n(C)c2ccc(C(=O)NCCCN3CCN(c4ccccc4F)CC3)cc12,"inconclusive: 35.5 µM [inhibitor, single point]"
18,Cc1cc(/C=C2\SC(=S)N(Cc3ccco3)C2=O)c(C)n1-c1ccccc1,"inconclusive: 2.59 µM [activator, full curve, poor fit]"
19,C=C1C(=O)C23CCC4C(C)(C(=O)OC)CCCC4(C)C2CCC1(O)C3 (stereo not given),"inconclusive: 14.1 µM [inhibitor, partial curve, poor fit]"
20,COc1cc(COc2ccc3c(C)c(Cc4ccccc4)c(=O)oc3c2)cc(OC)c1OC,"inconclusive: 1 µM [inhibitor, partial curve, poor fit]"

# A few values from the entries so far.
# In Potency, `O=C(N/N=C\c1cccc(Cl)c1)c1n[nH]c2c1CCCC2` is entered as inconclusive: 2.51 µM [inhibitor, full curve]
# In Potency, `Nc1ncc(-c2ccccc2)n1CC1CCCO1` (stereo not given) is entered as inconclusive: 20.6 µM [activator, partial curve]
